Some of the results follow.

The assay concerns the target T1, OsSMF1 (Oryza sativa, UniProt Q6ZLB0 1-436).
T1 sequence: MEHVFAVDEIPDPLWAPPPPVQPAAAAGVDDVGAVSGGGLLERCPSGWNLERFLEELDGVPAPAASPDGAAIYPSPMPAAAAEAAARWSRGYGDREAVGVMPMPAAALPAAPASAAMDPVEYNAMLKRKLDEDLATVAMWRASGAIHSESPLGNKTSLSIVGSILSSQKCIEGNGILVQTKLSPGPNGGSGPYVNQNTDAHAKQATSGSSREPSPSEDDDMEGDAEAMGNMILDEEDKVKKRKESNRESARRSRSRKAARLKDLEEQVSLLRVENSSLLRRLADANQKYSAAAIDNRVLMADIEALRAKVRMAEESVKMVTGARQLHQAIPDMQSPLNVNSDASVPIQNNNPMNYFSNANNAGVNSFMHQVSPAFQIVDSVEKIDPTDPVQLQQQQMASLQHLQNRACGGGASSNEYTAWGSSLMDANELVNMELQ
As to the kind of experiment: protein-binding microarray (RPBM); PBS, 2% BSA, 51.3 ng/ul salmon testes DNA, 50 uM zinc acetate, 200 nM TF, 25 C, 1 h; high values mean tight binding. The conditions noted are these: protein: recombinant; tags: N-terminal polyhistidine and DsRed monomer fusion (pET32a); chain copies: 2; label: CyDye5-dUTP incorporated in the synthesized complementary strand; 3' TTTTT single-stranded linker to array surface; dsDNA, one strand shown. The essentials:
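The binding signal is fluorescence intensity per array feature (arbitrary units). Readings came from an Axon 4000B scanner after a washed, 2% BSA-blocked, double-stranded custom Agilent array had been incubated for 1 h at 25 °C with 200 nM protein and 50 µM zinc acetate. The protein was a Ni–NTA-purified transcription factor fused N-terminally to polyhistidine and DsRed, expressed in E. coli BL21-CodonPlus.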
In the case of “TCAGCTGCGTCACCCGAGTCCTCCACTCGTCTCCGCTATTCGGAGTCACCTAGTGCAG”, the binding signal was 5650 fluorescence intensity (a.u.).
In the case of “GCAACACACGTACACATCACATCTCTCGATTGGCTTCCTTCGGAGTCACCTAGTGCAG” it was 5790 fluorescence intensity (a.u.); in that of “GCGAGACCTGGCGTTCGACGCTGACGACGTGCTGGACGAGCGGAGTCACCTAGTGCAG”, 4610 fluorescence intensity (a.u.).
“CTAAAGCATATGAACACTCTTGATTACGTCAACTCCTACTCGGAGTCACCTAGTGCAG”: the binding signal was 3180 fluorescence intensity (a.u.).
Then “AACCAGGACTAGCGTAGCGTGCGCTGACCCACTGTCACCGCGGAGTCACCTAGTGCAG”, with 3970 fluorescence intensity (a.u.); and “TCCCTGGACCCAACGAGACGGCCACGCATGCAATTGCAGCCGGAGTCACCTAGTGCAG”, with 7640 fluorescence intensity (a.u.); and “CTAGTAGAGTATGAGTTGGTTAACGTGACCGAGTAATTGTCGGAGTCACCTAGTGCAG”, with 3270 fluorescence intensity (a.u.).
Regarding “TATAATTTATCTAATTAAGGTCTTTGAAAACATGCTGTGACGGAGTCACCTAGTGCAG”, the binding signal was 6950 fluorescence intensity (a.u.).
In the case of “CTCCCCGCCGGAACCACCTCATCACTGCCGCATCCCCTCCCGGAGTCACCTAGTGCAG” it was 4340 fluorescence intensity (a.u.); in that of “CGGCAGCTGCGAAGCCGCCATGCGCAACAAGGCGGACTACCGGAGTCACCTAGTGCAG”, 20000 fluorescence intensity (a.u.).
In the case of “AGAGGAGGGAGGAGGAGGGATGGGGATGGAAGAAGGTGTTCGGAGTCACCTAGTGCAG” it was 3820 fluorescence intensity (a.u.).
With “TGCGTGGTGGTGTTGGTTGATGCAAAATGTGGCAGGGCCACGGAGTCACCTAGTGCAG”, the binding signal was 3170 fluorescence intensity (a.u.).
In the case of “GTGGTTCCCAACGTCGTCGGCTCGTTCTCCTCCACCTCACCGGAGTCACCTAGTGCAG” it was 3240 fluorescence intensity (a.u.); in that of “CTTGCCCTCGCTTGCACGTCACCCGTAAAACGCACCGCACCGGAGTCACCTAGTGCAG”, 8580 fluorescence intensity (a.u.).
Then “GTCGCGAAGTTCTCCTCGATCTTCTCCTCTGGAACCGCCTCGGAGTCACCTAGTGCAG”, with 3210 fluorescence intensity (a.u.); and “GTTACACAATTCTACACTGGTCATACAAGGCAGCACTATCCGGAGTCACCTAGTGCAG”, with 32100 fluorescence intensity (a.u.).
In the case of “GTTCGTGCCGCGCACTCATGCCATGCATGCCGTTTGCCGTCGGAGTCACCTAGTGCAG” it was 3210 fluorescence intensity (a.u.); in that of “CGTAAGACATAGAAGTTCCACACGTAAGTCAGGGCATCAACGGAGTCACCTAGTGCAG”, 3580 fluorescence intensity (a.u.); in that of “CACGGTAGAAGAGGAGTAGTAGTTGTCACGTTGGCACGCACGGAGTCACCTAGTGCAG”, 4590 fluorescence intensity (a.u.).
In the case of “CTAAATCCGAATACGTCAAATTGATACCCGCTTTTACAGCCGGAGTCACCTAGTGCAG”, the binding signal was 4060 fluorescence intensity (a.u.).
Take “GACCGTGCCCAAGCCACGCATGTGTAGGAGTGGGATGACGCGGAGTCACCTAGTGCAG”: the binding signal was 4420 fluorescence intensity (a.u.).
On to “TGCCTGCCGGCGGGGTCAGATTATTGACGTTAATGGACGCCGGAGTCACCTAGTGCAG”, for which the binding signal is 3680 fluorescence intensity (a.u.).
Regarding “CCAAAATGAGTTGAAATGAATTTTGTATGCATTTTATAAACGGAGTCACCTAGTGCAG”, the binding signal is 6000 fluorescence intensity (a.u.).
In the case of “CCTCGATCGACAACTCCGACGTATTTCCCTGCAGATATACCGGAGTCACCTAGTGCAG” it was 3150 fluorescence intensity (a.u.); in that of “CCCGCCCACGGGATCTCTCGCTGACTCGGACGACGACATCCGGAGTCACCTAGTGCAG”, 8930 fluorescence intensity (a.u.); in that of “CGTGCCCTCACCACTCACCACCACGTCGTCTCCCGGCGACCGGAGTCACCTAGTGCAG”, 5300 fluorescence intensity (a.u.).
“ACGGTCAAATAGCCGTTAGTGCCACGTGGCGCCTTCCCATCGGAGTCACCTAGTGCAG”: the binding signal is 32100 fluorescence intensity (a.u.).
As for “TTAGACCCCTGAACCGGCGTCTCCCGTCAGCCAGCCTTCGCGGAGTCACCTAGTGCAG”, the binding signal is 3280 fluorescence intensity (a.u.).
Then “TCTTCAGGAGAACGCATGACGCATTGCGTGCGTCTGAATACGGAGTCACCTAGTGCAG”, with 3800 fluorescence intensity (a.u.); and “GCTCGCCCAGTGAGTCTGTTGCGTAATAGTAATAATTGATCGGAGTCACCTAGTGCAG”, with 3950 fluorescence intensity (a.u.); and “GCGTAGGCGCCGACGACGGCGTCATCAGCGACGACGACATCGGAGTCACCTAGTGCAG”, with 3430 fluorescence intensity (a.u.).
Turning to “GGGTTACTTTCTCGCGTCACAAATTTTAGCCCTTCTTCTTCGGAGTCACCTAGTGCAG”, the binding signal was 3430 fluorescence intensity (a.u.).
For “TAGTCTCCTCCAATCCCCGAATTGTTCATCGTCTGTCGTCCGGAGTCACCTAGTGCAG”, the binding signal was 3280 fluorescence intensity (a.u.).
“CCTCCGATCGATCGATGTGTGTTGGATGGCGCGTCCGTCTCGGAGTCACCTAGTGCAG”: the binding signal is 3840 fluorescence intensity (a.u.).
In the case of “TCCAAAATATAGCAACTTTTGACATCATTATATTTTGGGACGGAGTCACCTAGTGCAG”, the binding signal is 5150 fluorescence intensity (a.u.).
Then “TTTTGGGTGAATGTGACACACCCTAATACCATGAATCTAGCGGAGTCACCTAGTGCAG”, with 3760 fluorescence intensity (a.u.); and “CCTGCATGCGCGTGACGCACACCAATCATATCACAACACTCGGAGTCACCTAGTGCAG”, with 4450 fluorescence intensity (a.u.); and “ATACCGTACGACTGTCAATTGTCATGATACCGACGGTTACCGGAGTCACCTAGTGCAG”, with 4440 fluorescence intensity (a.u.).
For “TGGAGTTCTGCCCTGCAGGGGATCACAGAGCAGGGCATAGCGGAGTCACCTAGTGCAG”, the binding signal is 32000 fluorescence intensity (a.u.).
As to “CATTACATCCAATCCAAGCGTGATGACATATCATCATCCTCGGAGTCACCTAGTGCAG”, the binding signal was 5270 fluorescence intensity (a.u.).
For “CGGGATGATGATGAGGAGCTGTTTGAGGGGAACTGGGTGGCGGAGTCACCTAGTGCAG”, the binding signal is 29900 fluorescence intensity (a.u.).
Then “GCGCCCCATCCACGCGTCATGCATCCACGTCGGGGCTGCACGGAGTCACCTAGTGCAG”, with 11600 fluorescence intensity (a.u.); and “AGCGGAGATCGATATATCGCGACGTGTACGGCCACGTCACCGGAGTCACCTAGTGCAG”, with 30600 fluorescence intensity (a.u.).
Then “TGACAGTAGTTCGTGTTCAGTGTACGTGTTCAGTGTTCAGCGGAGTCACCTAGTGCAG”, with 4180 fluorescence intensity (a.u.); and “ATCGCTCAGTACCTAAACATTCATTCATCATCGGGCGAACCGGAGTCACCTAGTGCAG”, with 16600 fluorescence intensity (a.u.); and “TCTCCAGCGACGCAATTGCGGGCCCCGGGCCGGCGCCAACCGGAGTCACCTAGTGCAG”, with 3200 fluorescence intensity (a.u.).
Then “CACTTGTTTTATCGGTGTGAATTGATGCTGTGCTTGTCATCGGAGTCACCTAGTGCAG”, with 3490 fluorescence intensity (a.u.).
“TGTACCTGAAACTATTGTTATGTCCAGGTCAGGAGCAGTGCGGAGTCACCTAGTGCAG”: the binding signal is 3360 fluorescence intensity (a.u.).
As for “GATGGCTTACGTAATCGGATCCGCCACGCCATCCCGTGCTCGGAGTCACCTAGTGCAG”, the binding signal is 11700 fluorescence intensity (a.u.).
Consider “TTTCACCGATAGCATCATATGTGACGCGTAACTGAAACAACGGAGTCACCTAGTGCAG”, for which the binding signal was 4620 fluorescence intensity (a.u.).
Consider “AAACAACCAACTTTGCCTGCAAAACGGCAAAGAGATTAACCGGAGTCACCTAGTGCAG”, for which the binding signal is 3920 fluorescence intensity (a.u.).
In the case of “GTTATCCCTAACGAGCTAAAATGCCAGCTCAGCTCGTTAACGGAGTCACCTAGTGCAG” it was 7600 fluorescence intensity (a.u.).
Regarding “GCATTTCAGCCTCCTCATCAAAGAAATGCTGACAAGAAATCGGAGTCACCTAGTGCAG”, the binding signal is 3520 fluorescence intensity (a.u.).
In the case of “TATATATATATATATATATATATATATAACACACACCGTGCGGAGTCACCTAGTGCAG” it was 3560 fluorescence intensity (a.u.).

The values above are taken from publication PMC7819943, “Rice protein-binding microarrays: a tool to detect cis-acting elements near promoter regions in rice”.
